Reference: publication PMC6126872

Protein sequences, listed by entry. Tags and fused reporters are not part of them. Lines headed by an entry give the natural chain unless they say otherwise; changes in a name come on top. Residues count along the entry.
UniProt P03423, residues 64-298: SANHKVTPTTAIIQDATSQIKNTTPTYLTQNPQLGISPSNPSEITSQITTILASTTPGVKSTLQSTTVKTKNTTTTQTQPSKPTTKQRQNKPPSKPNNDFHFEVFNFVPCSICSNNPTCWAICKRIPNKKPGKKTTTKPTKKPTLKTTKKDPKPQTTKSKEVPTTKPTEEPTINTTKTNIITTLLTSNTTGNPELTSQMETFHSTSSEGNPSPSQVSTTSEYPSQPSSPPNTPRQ
UniProt P49238: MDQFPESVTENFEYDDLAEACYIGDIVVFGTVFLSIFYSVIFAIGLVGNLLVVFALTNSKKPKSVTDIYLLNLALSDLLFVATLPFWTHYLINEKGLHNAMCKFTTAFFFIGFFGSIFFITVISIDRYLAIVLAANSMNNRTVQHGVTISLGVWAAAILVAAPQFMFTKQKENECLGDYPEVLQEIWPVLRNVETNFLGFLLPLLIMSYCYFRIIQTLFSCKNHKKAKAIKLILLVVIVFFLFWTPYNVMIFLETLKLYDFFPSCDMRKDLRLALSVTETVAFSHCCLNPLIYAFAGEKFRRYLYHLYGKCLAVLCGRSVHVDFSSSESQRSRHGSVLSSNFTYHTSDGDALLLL

Biological target: Recombinant Mammalian expressed G ectodomain (RMG) of RSV A2 (respiratory syncytial virus (RSV) strain A2) (UniProt P03423)
Assay: SPR; RMG captured on a HTG sensor chip via Histidine tag (500 RU); recombinant CX3CR1 5 μg/mL injected at 50 μl/min for 120 s; ProteOn; binding without serum set as 100%; both purified

recombinant CX3CR1 (from UniProt P49238) (receptor)
binding: binds

Results are given in words; binding and its absence hold for the method and conditions named. Binding can be weak; no strength is given.
